## Screening data

From PubChem BioAssay record AID1159506 (NCATS, 2015).

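Luminescence from an EWS-FLI1 target-promoter (NR0B1) reporter, set against a CMV-promoter reporter, two days after silencing single genes in TC32 Ewing sarcoma cells. Each siRNA was applied at 20 nM. A z-score of the log NR0B1-over-CMV signal, less the median of siRNAs with the same seed; more negative means a stronger specific loss of the NR0B1 reporter.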

This is part of the screen; most of the strongest results are not listed here. Sequences are the guide (antisense) strand, without overhang.

| # | strand | gene | seed-corrected z-score |
|---|---|---|---|
| 1 | `UUUCAUGGUACUAAAAUCC` | BRD7 | 1.183 |
| 2 | `AAGUACACCAUGACGAUGC` | TM9SF4 | -0.07314 |
| 3 | `AAGUUAUCACGAAUCUUCG` | THEG | 0.828 |
| 4 | `AUAGAGUCAGCAGCUACCG` | AKAP6 | 0.1874 |
| 5 | `UUCGAGUUGACAGAGAAUC` | PSRC1 | 0.6201 |
| 6 | `ACCGUCAAAAGUGUUGUAG` | BMPER | 0.1855 |
| 7 | `UUCCAUUAGAGAGUCGGGC` | PRKD3 | 0.8074 |
| 8 | `AAGGCAAUCAAGCCCAUGG` | CD1D | -1.42 |
| 9 | `UGAGCUCUGGGUUUGAAGC` | SUCLG2P2 | 0.2773 |
| 10 | `UAUGUGGUAACUUGCAGGG` | HYAL4 | -1.626 |
| 11 | `UUGUUAGAUACAUUGUUCC` | BOLL | 0.03797 |
| 12 | `UAACGCAACACUCAGAUUC` | SLC17A5 | 0.1133 |
| 13 | `AGUCUGGAUAGAAAGGUCG` | ZFP90 | 1.161 |
| 14 | `UAAAAGUCCUGCUUGAUGA` | MPPED1 | 0.1415 |
| 15 | `UGAGGGAUCAGGUCAAUCA` | LOC644265 | -0.1299 |
| 16 | `UGUCAUACUUAACUCCUCC` | ATOX1 | -0.8164 |
| 17 | `AAUCCUUUGAAUGCCGGUC` | TBX5-AS1 | -0.303 |
| 18 | `AAAGGACAUGAUGUAGUCG` | MOGAT3 | 1.022 |
| 19 | `AUACGUAAUGCCCUUAGCC` | DDX41 | -0.125 |
| 20 | `UGACUCUAUAUUGCGCUUC` | RNLS | 0.6915 |
| 21 | `AUAUGAUCAGGAUAUUUUC` | MC2R | -0.2214 |
| 22 | `UUCCCGUUGACAAGUUUCG` | CHAF1A | -1.214 |
| 23 | `UUGUGGUUCAUCACUAGAG` | OR10AG1 | -1.363 |
| 24 | `UAUAGUUCUUGCAUAUGUC` | PSAP | 0.1373 |
| 25 | `UAGAUUCACGGUAUCUUCU` | RPL19 | -0.3044 |
| 26 | `UAUUAGAUAAUCCGAAAUC` | PRKAA2 | 0.06996 |
| 27 | `ACAUAUUCUACAAACCUCC` | XYLT1 | 0.8544 |
| 28 | `UGUGGUAUUUGCACAGUUC` | IFNAR2 | -0.09712 |
| 29 | `UAUCGAAUGUUUCAUAUUC` | GLRX3 | -0.07918 |
| 30 | `UUUGAGUUCAUUCCGCUCC` | RILP | 0.3215 |
| 31 | `UAUCUCGGCUCUUAGAGUG` | RPL21 | -1.647 |
| 32 | `AACUCUUAAAAAUAGCUGG` | CHRNA6 | -0.4149 |
| 33 | `UUUCAGUUCAUCCUGCUUC` | ATP5I | 1.713 |
| 34 | `UCUGCAAUUGAUGUAACCC` | PRPS2 | 0.3809 |
| 35 | `UCAUCGAUAUGGUUCAGUG` | DUSP13 | -0.5125 |
| 36 | `UGCUAGUUAAAUACUCUUG` | SMARCC1 | 0.9765 |
| 37 | `UGGAUAAGCAGUUAAGUUG` | KRTAP24-1 | 1.403 |
| 38 | `UAAGUCCACUGUUCCUUAG` | LOC647481 | 0.3107 |
| 39 | `UUCGCUUAUAGGAUUGCUG` | SCAF11 | -0.3548 |
| 40 | `UUAAUGUCAAUUUAACUCG` | PTPN12 | -1.224 |
| 41 | `UAGGUUUCCUGAAUAGACG` | PGLYRP2 | -0.1987 |
| 42 | `UCAGAUUUGAGCACAGCGG` | RBM10 | 0.05092 |
| 43 | `UCUGUAGAAUCUCCGAUUG` | VPS45 | 0.6834 |
| 44 | `AUUCGUUCAAGAAUGAAGU` | C8A | 0.993 |
| 45 | `UUCCAAAUCUGCUCUAGCC` | YJEFN3 | 0.2584 |
| 46 | `UUAGUAACAUGAUAUCGUG` | CMA1 | 0.13 |
| 47 | `UUUUCUCCGAUGUGGAUCC` | ZNF629 | 0.2985 |
| 48 | `UGAAGAUCUCCAUUUUCCC` | RFTN1 | 0.4074 |
| 49 | `UUCUUGAUCCUUUCGUGCC` | IL17RB | 0.1797 |
| 50 | `AAACUCAUAGUAGCCCUCC` | CAMK1G | -0.207 |
| 51 | `UAUCUUGCAUUGUUCGUGG` | ANKRD50 | -1.26 |
| 52 | `UUCUUCACCGCUUUUCACU` | SLC14A2 | 0.6177 |
| 53 | `UCUUUAUCAAAGCUUCUUC` | KLHL3 | -0.3907 |
| 54 | `AUAGGUAUAUAAGCGAUUU` | HBEGF | 0.7935 |

The last 5 entries again:

strand,gene,seed-corrected z-score
AAACUCAUAGUAGCCCUCC,CAMK1G,-0.207
UAUCUUGCAUUGUUCGUGG,ANKRD50,-1.26
UUCUUCACCGCUUUUCACU,SLC14A2,0.6177
UCUUUAUCAAAGCUUCUUC,KLHL3,-0.3907
AUAGGUAUAUAAGCGAUUU,HBEGF,0.7935